Among the data in paper PMC8126209, “Phytochemical Profile and In Vitro Antioxidant, Antimicrobial, Vital Physiological Enzymes Inhibitory and Cytotoxic Effects of Artemisia jordanica Leaves Essential Oil from Palestine” (Molecules, 2021) are MIC and IC50 values, retold here.

Converted amounts (≈) assume the structure as drawn. Read-outs that look alike come from different tables or passages of the source.

For one assay, the system named is C. albicans. As to the kind of experiment: Broth microdilution MIC, C. albicans. The format is cell-based, Candida albicans (ATCC 90028). As to conditions: RPMI media, 48 h. How it is done:
(§1) The antibacterial effect of (AJ) EO was determined utilizing several strains of bacteria, which were obtained from the American Type Culture Collection (ATCC): Pseudomonas aeruginosa (ATCC 9027), Escherichia coli (ATCC 25922), Klebsiella pneumonia (ATCC 13883), Proteus vulgaris (ATCC 8427), and Staphylococcus aureus (ATCC 25923), and from a diagnostically confirmed methicillin-resistant Staphylococcus aureus (MRSA). The antifungal activity of (AJ) EO was evaluated against the growth of Candida albicans (ATCC 90028). The antimicrobial activity of the (AJ) EO used in this study was estimated using the broth microdilution method. The (AJ) EO was dissolved in DMSO to a concentration of 200 µg/mL. The produced solution was serially micro-diluted (2-fold) 10 times in sterile Mueller–Hinton broth (Thermo Fisher Scientific, Waltham, MA, USA). The dilution processes were performed under aseptic conditions in 96-well plates. In the micro-wells that were assigned to evaluate the antibacterial activity of (AJ) EO, micro-well number 11 contained plant-free Mueller–Hinton broth, which was used as a positive control for microbial growth. Micro-well number 12 contained plant-free and microbial-free Mueller–Hinton broth, which was used as a negative control for microbial growth. […] The (AJ) EO antimicrobial activity was determined in triplicate. […]
(In broth dilution the organism is exposed to a series of concentrations in liquid medium.)

A further assay has as its system E. coli. As to the kind of experiment: Broth microdilution MIC, E. coli. The format is cell-based, Escherichia coli (ATCC 25922). To be noted: Escherichia coli. The protocol: as §1
The subject of the next assay is S. aureus. The assay is described as follows: Broth microdilution MIC, S. aureus. The class given is cell-based, Staphylococcus aureus (ATCC 25923). How it is done:
The antibacterial effect of (AJ) EO was determined utilizing several strains of bacteria, which were obtained from the American Type Culture Collection (ATCC): Pseudomonas aeruginosa (ATCC 9027), Escherichia coli (ATCC 25922), Klebsiella pneumonia (ATCC 13883), Proteus vulgaris (ATCC 8427), and Staphylococcus aureus (ATCC 25923), and from a diagnostically confirmed methicillin-resistant Staphylococcus aureus (MRSA). The antifungal activity of (AJ) EO was evaluated against the growth of Candida albicans (ATCC 90028). The antimicrobial activity of the (AJ) EO used in this study was estimated using the broth microdilution method. The (AJ) EO was dissolved in DMSO to a concentration of 200 µg/mL. The produced solution was serially micro-diluted (2-fold) 10 times in sterile Mueller–Hinton broth (Thermo Fisher Scientific, Waltham, MA, USA). The dilution processes were performed under aseptic conditions in 96-well plates. In the micro-wells that were assigned to evaluate the antibacterial activity of (AJ) EO, micro-well number 11 contained plant-free Mueller–Hinton broth, which was used as a positive control for microbial growth. Micro-well number 12 contained plant-free and microbial-free Mueller–Hinton broth, which was used as a negative control for microbial growth. Micro-wells numbered 1–11 were inoculated aseptically with the test microbes. The (AJ) EO antimicrobial activity was determined in triplicate. All the inoculated plates were incubated at 35 °C. Regarding C. albicans, the same method was used but using RPMI media (Thermo Fisher Scientific, Waltham, MA, USA) instead of Mueller–Hinton broth. The incubation period lasted for about 18–24 h for those plates inoculated with the test bacterial strains and for about 48 h for those plates inoculated with C. albicans. […]

Another assay deals with MCF7. The assay is described as follows: MTS cytotoxicity assay, MCF7. To be noted: Homo sapiens, 24 h, read-out: IC50 against MCF7. The format is cell-based. The protocol:
The liver (Hep3B), breast (MCF-7), Human cervical (HeLa), and Colon (CACO-2) tumor cell lines were cultivated separately in RPMI-1640 media (Sigma, Norwich, UK), which was treated with 1% L-glutamine (Sigma, London, UK), 1% penicillin/streptomycin antibiotics (BI, New Delhi, India), and 10% fetal bovine serum. Cancer cells were grown at 37 °C in a humidified atmosphere with 5% CO2. Cells were seeded at 2.6 × 10^4 cells/well in a 96-well plate. […] Cell viability was evaluated by the CellTilter 96® Aqueous One Solution Cell Proliferation (MTS) Assay according to the manufacturer’s directions (Promega Corporation, Madison, WI, USA). At the end of the treatment, 20 μL of MTS solution per 100 μL of media was added to each well, and the solutions in the well plates were incubated at 37 °C for 2 h. The absorbance was measured at 490 nm.
(In general: Tetrazolium dyes change colour on reduction, which living cells bring about.)

For a further assay, the system named is P. aeruginosa. The assay is described as follows: Broth microdilution MIC, P. aeruginosa. The class given is cell-based, Pseudomonas aeruginosa (ATCC 9027). As to conditions: Pseudomonas aeruginosa. How it is done:
as §1

[1] abbreviates: Staphylococcus aureus, read-out: MIC.

On to `OC(Cn1cncn1)(Cn1cncn1)c1ccc(F)cc1F` [Fluconazole, fluconazole], for which the MIC came to 1.56 µg/mL (≈ 5.09 µM) in the assay with C. albicans (Candida albicans, read-out: MIC) and 1.56 µg/mL (≈ 5.09 µM) against C. albicans.

On to `CC1(C)S[C@@H]2[C@H](NC(=O)[C@H](N)c3ccccc3)C(=O)N2[C@H]1C(=O)O` [Ampicillin, ampicillin], for which the MIC in the assay with E. coli and in the assay with S. aureus (setting [1]) was 3.12 µg/mL (≈ 8.93 µM) each time.

In the case of `COc1cccc2c1C(=O)c1c(O)c3c(c(O)c1C2=O)C[C@@](O)(C(=O)CO)C[C@@H]3O[C@H]1C[C@H](N)[C@H](O)[C@H](C)O1` [doxorubicin], the IC50 in the assay with MCF7 came out at 0.43 ± 0.06 µg/mL (≈ 0.791 µM).

In the case of `O=C(O)c1cn(C2CC2)c2cc(N3CCNCC3)c(F)cc2c1=O` [Ciprofloxacin, ciprofloxacin], the MIC amounted to 3.12 µg/mL (≈ 9.42 µM) in the assay on P. aeruginosa, 1.56 µg/mL (≈ 4.71 µM) against E. coli, 0.78 µg/mL (≈ 2.35 µM) in the assay with S. aureus and 0.78 µg/mL (≈ 2.35 µM) in the assay with S. aureus (setting [1]).

What is called MIC is the smallest concentration in the dilution series that meets the test's criterion for growth inhibition. Broadly, the IC50 is the concentration that gives 50% inhibition.
